Measurements taken from PubChem BioAssay AID1259354 (Paczesny and Yang Labs, IUPUI and University of Michigan, 2018).
In all, about 78,000 compounds went through this assay and about 1,800 (2.3%) were called active. Inconclusive means that the source gave no clear call. Such entries were picked first, then a sample of the others. Rule as the data show it: active = inhibition above about 30%; inconclusive = mostly about 10% to 28%; inactive = weaker than that.

Protein sequences, listed by entry. Tags and fused reporters are not part of them. Lines headed by an entry give the natural chain unless they say otherwise; changes in a name come on top.
UniProt Q01638: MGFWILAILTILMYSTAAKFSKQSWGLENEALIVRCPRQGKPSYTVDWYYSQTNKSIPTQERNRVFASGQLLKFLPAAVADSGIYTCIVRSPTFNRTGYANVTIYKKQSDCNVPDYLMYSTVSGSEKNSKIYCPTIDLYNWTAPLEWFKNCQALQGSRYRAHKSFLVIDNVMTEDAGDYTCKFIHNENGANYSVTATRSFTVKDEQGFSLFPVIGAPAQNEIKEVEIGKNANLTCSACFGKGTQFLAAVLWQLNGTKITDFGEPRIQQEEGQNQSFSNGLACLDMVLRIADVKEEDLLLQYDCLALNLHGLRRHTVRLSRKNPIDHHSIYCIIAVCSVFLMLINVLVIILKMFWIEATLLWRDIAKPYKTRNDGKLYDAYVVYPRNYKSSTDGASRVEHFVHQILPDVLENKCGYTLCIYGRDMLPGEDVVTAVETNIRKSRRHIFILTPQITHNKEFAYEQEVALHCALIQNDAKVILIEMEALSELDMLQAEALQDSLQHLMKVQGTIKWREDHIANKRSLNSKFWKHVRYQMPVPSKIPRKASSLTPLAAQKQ

Target: Interleukin-1 receptor-like 1 (Homo sapiens) (UniProt Q01638)
Assay: blocks human ST2 binding to IL-33, primary screen, biochemical, AlphaLISA (AID 1259354)
Conditions: AlphaLISA ST2-Fc/biotin-IL-33 interaction, 1 h; at 17 µM, active compounds read high

| SMILES | inhibition |
| --- | --- |
| Cc1cccc(NC(=O)CC2Sc3ccc(C(F)(F)F)cc3NC2=O)c1C (configuration not stated) | inconclusive: 17% |
| O=S(=O)(c1ccc(F)cc1)N1CCSC1c1ccc2c3c(cccc13)CC2 (configuration not stated) | inconclusive: 12% |
| COc1cncc(-c2cccnc2OC)c1 | inconclusive: 15% |
| COc1ccc(NC(=O)c2oc3ccccc3c2NC(=O)C2CCCC2)cc1 | inactive |
| CN(C)S(=O)(=O)c1ccc(C(=O)Nc2nnc(-c3ccc(Cl)s3)o2)cc1 | inconclusive: 13% |
| Cc1noc(C)c1S(=O)(=O)Nc1ccc(Br)cc1 | inactive |
| CN(CCCCN1CCOCC1)c1nc2nonc2nc1N1CCCC1 | inactive |
| Cc1ccc(C)c(N(C)S(=O)(=O)c2c(C)[nH]c(=O)[nH]c2=O)c1 | inactive |
| CC1(C)COCN1S(=O)(=O)c1ccc(C(=O)Nc2nnc(-c3cccs3)o2)cc1 | inactive |
| O=C(COc1ccccc1)Nc1ccc(NC(=O)COc2ccccc2)cc1 | inconclusive: 18% |
| COc1cc(NC(=O)CCC2CCCN(C(=O)CCN3CCCCO3)C2)cc(OC)c1 (configuration not stated) | inactive |
| COc1ccccc1/C=C/CN1CCC(Cc2nnc(CO)n2C)CC1 | inconclusive: 22% |
| CCn1c(/C=C/c2cccnc2)nc2ccccc2c1=O | active: 96% |
| O=S(=O)(NC[C@H]1O[C@@H](CO)[C@@H](O)[C@H]1N1CCOCC1)c1ccc(F)cc1 | inconclusive: 12% |
| Cc1cc(C)c(NC(=O)c2ccc(Cl)cc2[N+](=O)[O-])c(C)c1 | inactive |
| Cn1c(SCC(=O)Nc2ccc(F)cc2)nc2c([nH]c3ccccc32)c1=O | inconclusive: 10% |
| CC1(C)C2CC=C(COC3OC(COC4OCC(O)(CO)C4O)C(O)C(O)C3O)C1C2 (configuration not stated) | inconclusive: 10% |
| CCOc1ccc(NC(=O)c2c(OC)cccc2OC)cc1 | inconclusive: 13% |
| Cc1cccc(NC(=O)Nc2c(C)nc3nc(C)[nH]n3c2=O)c1 | inconclusive: 26% |
| Cc1ccc2c(N3C[C@H]4C[C@H](O)[C@H](O)C[C@H]4C3)ccnc2c1C | inconclusive: 27% |
| CCSc1ncnc2c(C#N)c3n(c12)CCCCC3 | inconclusive: 12% |
| COC(=O)c1[nH]ncc1CN1CCCC(OCc2ccccn2)C1 (configuration not stated) | inconclusive: 11% |
| C=CCNc1nc(-c2ccc(OC)c(OC)c2)cs1 | inactive |
| Oc1ccc(N=Cc2nc(-c3ccc(Br)cc3)oc2O)cc1 | inconclusive: 29% |
| O=C(CSc1ncccn1)NCC1Cc2cc(Cl)cc(-c3ccc4[nH]ccc4c3)c2O1 (configuration not stated) | inconclusive: 12% |

| SMILES | inhibition |
| --- | --- |
| COc1ccccc1OC1=NS(=O)(=O)c2cc([N+](=O)[O-])ccc21 | inactive |
| Cc1nc2n(n1)C(c1ccccc1)C=C(c1ccccc1)N2 (configuration not stated) | inactive |
| COc1cc2c(C(=O)N3CCCc4ccccc43)cn(C)c(=O)c2cc1OC | inactive |
| Cc1nc2ccccc2c2c1C(=O)N(c1cccc(Cl)c1C)C2=O | inconclusive: 23% |
| CCc1nnc(NC(=O)CSc2cccc3cccnc23)s1 | inconclusive: 11% |
| Brc1ccc(C=Nc2cnc3ccccc3c2)cc1 | inconclusive: 18% |
| CC(=O)Nc1ccc(S(=O)(=O)N2CCN(c3nc(C)cc(N4CCCC4)n3)CC2)cc1 | inactive |
| CN(C(=O)c1nn(-c2ccc(Cl)cc2)c(=O)c2ccccc12)C1CCCCC1 | inactive |
| CCCC1=NN(c2nc3ccccc3s2)C(=O)/C1=C/N(C)C | inconclusive: 11% |
| COc1ccc(C2C(C(=O)OC3CCCCC3)=C(C)Nc3ncnn32)cc1OC (configuration not stated) | inactive |
| Cc1ccn(CCn2ccnc2-c2nn(C)c3cccc(Cl)c23)n1 | inconclusive: 19% |
| CCOc1ccc(-n2c(=O)c3sccc3n(Cc3cc(=O)n4ccccc4n3)c2=O)cc1 | inconclusive: 15% |
| CCc1cccc(NC(=O)c2cc3cc4ccc(OC)cc4nc3o2)c1 | inactive |
| Cc1ccc(-n2cc(-c3ccc4c(c3)OCO4)[nH]c2=O)cc1 | inactive |
| COc1ccc(-c2csc3ncnc(N4CCN(c5ccccn5)CC4)c23)cc1 | inconclusive: 18% |
| COCCc1noc(CNC2CCSC2)n1 (configuration not stated) | inconclusive: 17% |
| CSc1cccc(N=Cc2[nH]c3ccc(Br)c(Cl)c3c2O)c1 | inconclusive: 20% |
| CCOc1cc(CN2CCCC(C(=O)N(CC)CC)C2)ccc1OC (configuration not stated) | inactive |
| CC(C)(C)c1ccc(C(=O)N[C@H]2C[C@@H]3CC[C@H]2C3)cc1 | inconclusive: 13% |
| O=C(NCc1cccc(CNC(=O)c2cccc(F)c2)c1)c1cccc(F)c1 | inactive |
| CC1(C)C(=O)OC(c2ccccc2F)C(C)(C)C1=O (configuration not stated) | inconclusive: 16% |
| CC(C[N+](C)(C)C)OC(N)=O (configuration not stated) | inconclusive: 14% |
| Cc1cccc(-c2cccc(NC(=O)C3CCCN(C(=O)C4=NN(C)C(=O)CC4)C3)c2)c1 (configuration not stated) | inactive |
| COc1ccccc1CN1C(=O)O[C@@H]2CN(C(=O)C(=O)c3ccco3)C[C@@H]21 | inactive |
| Cc1ccc(NS(=O)(=O)c2cc(S(=O)(=O)c3ccccc3)ccc2C)cc1 | inconclusive: 12% |

| SMILES | inhibition |
| --- | --- |
| CCOC(=O)C1(Cc2ccccc2)CCCN(C(=O)C#Cc2ccccc2)C1 (configuration not stated) | active: 42% |
| O=C(Nc1nc2ccc(C(=O)N3CCCCC3)cc2s1)c1cccs1 | inactive |
| Cc1ccc(N(CC(=O)Nc2ccc3c(c2)OCO3)S(C)(=O)=O)cc1Cl | inconclusive: 12% |
| CCN1CCN(C(c2cccs2)C(C)NC(=O)Cc2cccs2)CC1 (configuration not stated) | inconclusive: 17% |
| O=C(CC(c1ccccc1)c1ccccc1)N1CCN(c2ccccc2F)CC1 | inconclusive: 16% |
| CCOc1cccc(CN(Cc2nc[nH]c2C)C2CC2)c1 | inconclusive: 11% |
| COc1ccc(S(=O)(=O)N2CCSC2c2cc(Br)ccc2OC)cc1 (configuration not stated) | inconclusive: 14% |
| CCCCN1C(=O)c2ccccc2C1C(=O)NC1CCCC1 (configuration not stated) | inconclusive: 20% |
| O=C(NCCCNc1ccc([N+](=O)[O-])cc1C(F)(F)F)c1ccc(Cl)cc1 | inconclusive: 11% |
| CC[C@H]1CN(C(=O)Nc2cccc(C(F)(F)F)c2)CC[C@H]1CC(=O)NCc1cccs1 | inconclusive: 12% |
| CCOC(=O)C1C(=O)C=C(c2cccs2)CC1c1ccco1 (configuration not stated) | inconclusive: 18% |
| Cc1ccc(S(=O)(=O)NCc2nc3cccnc3n2Cc2ccccc2)cc1 | inconclusive: 10% |
| CC(C)c1nnc2sc(C3CCOC(C)(C)C3)nn12 (configuration not stated) | inconclusive: 19% |
| COc1ccc(CC2(C)OC(c3ccc(C)cc3)=NN2C(C)=O)cc1 (configuration not stated) | inconclusive: 23% |
| O=C(CSc1nc2c(sc3ccccc32)c(=O)n1CCO)NC1CCCC1 | inconclusive: 13% |
| Cc1c(Cl)cccc1Nc1nc(N)nc(CSc2ncccn2)n1 | inconclusive: 22% |
| O=C(O)c1nccnc1C(=O)Nc1ccccc1 | inconclusive: 12% |
| CC(=O)c1c(C)nc(-c2ccccc2)nc1N | inconclusive: 14% |
| CC(C)C(=O)Nc1c(C(=O)Nc2cccc(F)c2)oc2ccccc12 | inconclusive: 21% |
| COc1ccc(-c2ccnc(N[C@H]3CO[C@H]4[C@@H]3OC[C@@H]4NC(=S)Nc3cccc(C#N)c3)n2)cc1 | inactive |
| Cc1n[nH]c(C)c1S(=O)(=O)N1CCC(C(=O)Nc2ccc(Cl)cc2)CC1 | inactive |
| O=c1c2ccccc2nc2nc(-c3ccccc3)cc(-c3ccccc3)n12 | inconclusive: 17% |
| COc1ccc(-c2nc3ccccc3c(=O)o2)cc1[N+](=O)[O-] | inconclusive: 17% |
| CCCNC(=O)CCS(=O)(=O)c1cc(Br)cc2c1N(C(C)=O)CC2 | inactive |
| Cc1nc(CC(=O)N(Cc2cccnc2)Cc2cccnc2)cs1 | inactive |

Copied from the list.
Under inhibition, CCOc1cccc(CN(Cc2nc[nH]c2C)C2CC2)c1 has the entry inconclusive: 11%
Under inhibition, COc1ccc(S(=O)(=O)N2CCSC2c2cc(Br)ccc2OC)cc1 (configuration not stated) has the entry inconclusive: 14%
Under inhibition, COc1ccc(-c2nc3ccccc3c(=O)o2)cc1[N+](=O)[O-] has the entry inconclusive: 17%
Under inhibition, CC(=O)c1c(C)nc(-c2ccccc2)nc1N has the entry inconclusive: 14%
Under inhibition, O=c1c2ccccc2nc2nc(-c3ccccc3)cc(-c3ccccc3)n12 has the entry inconclusive: 17%
Under inhibition, CCCCN1C(=O)c2ccccc2C1C(=O)NC1CCCC1 (configuration not stated) has the entry inconclusive: 20%

Continued:

| SMILES | inhibition |
| --- | --- |
| Cc1ncc(CN2CCN(c3nnc(C(F)(F)F)s3)CC2)[nH]1 | inconclusive: 10% |
| Cc1ccc(C)c(NC(=O)CC(=O)NCC(O)Cc2ccccc2)c1 (configuration not stated) | inconclusive: 12% |
| CCCCn1c(C)csc1=Nc1ccccc1 | inconclusive: 15% |
| CCc1ccccc1-c1cccc(-n2cnnc2)c1 | inconclusive: 19% |
| Cc1cc(SCc2ccccc2)nc(=O)[nH]1 | inconclusive: 11% |
| Cc1c(C(=O)NC(C)C)oc2ccc(S(=O)(=O)N3CCC4(CC3)OCCO4)cc12 | inactive |
| CN1CCC(C#CC(O)(c2ccccc2)c2ccccc2)CC1 | inconclusive: 17% |
| NC(=O)c1ccccc1NC(=O)c1cccc(I)c1 | inactive |
| Cc1cc(NC(=O)CSCCc2ccncc2)no1 | inconclusive: 15% |
| Oc1c(C(Nc2cccc(Cl)c2)c2ccccn2)ccc2cccnc12 (configuration not stated) | inconclusive: 10% |
| O=C(O)c1cccnc1CN1CCN(c2ccccc2-c2ccccc2)CC1 | inconclusive: 16% |
| O=C(CC1CCS(=O)(=O)C1)N1CCC(CO)(Cc2ccccc2)CC1 (configuration not stated) | inconclusive: 14% |
| Cc1nnc(SCc2nc(-c3ccccc3)oc2CSc2nnc(C)c(=O)[nH]2)[nH]c1=O | inactive |
| CC(=O)n1c2c(c3ccccc31)OC(N)=C(C#N)C2c1ccc(Br)cc1 (configuration not stated) | inactive |
| O=C(N[C@H]1CCN2C(=O)c3cc(-c4ccccc4F)ccc3NC(=O)[C@H]12)c1cccs1 | inconclusive: 12% |
| N#C/C(=C\c1ccc(Cl)cc1)c1nc(C2CC2)cs1 | active: 66% |
| C=CCN1CC(C(=O)Nc2cccc(NC(=O)c3ccc(C)cc3)c2)CC1=O (configuration not stated) | inconclusive: 14% |
| COc1ccc(NC(=O)CN2CCCN(Cc3cccc(F)c3)S2(=O)=O)c(OC)c1 | inactive |
| O=C(CN1N=NC2C(=O)N(c3ccc(Cl)cc3)C(=O)C21)Nc1ccc(Oc2ccccc2)cc1 (configuration not stated) | inconclusive: 10% |
| CCc1ccc(S(=O)(=O)N2CCSC2c2cccc(Cl)c2)cc1 (configuration not stated) | inactive |
| CCOc1cc(C(=O)Nc2c3c(nn2-c2ccccc2)CSC3)cc(OCC)c1OCC | inconclusive: 13% |
| O=C(O)CNC(=O)C(CS)Cc1ccccc1 (configuration not stated) | inconclusive: 25% |
